Some of the results follow.
Assays:
Assay in all cases: glycan array binding signal (z-score within array); higher = stronger binding
Conditions in all cases: glycan notation: IUPAC condensed, linker removed
Fuc(a1-2)Gal = target: Fuc(a1-2)Gal
Procedure, shortened: (§1)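 Arrays were curated from the Consortium for Functional Glycomics database, 3228 in total, and kept only where the protein sequence was available. Binding is expressed as a within-array Z-score. This score was averaged across arrays of the same protein sequence at different concentrations or buffers and across linkers, and negative values can be read as non-binding.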

Fuc(a1-2)Gal(b1-3)GalNAc = target: Fuc(a1-2)Gal(b1-3)GalNAc
Procedure, shortened: as §1

[1] = target: Fuc(a1-2)Gal(b1-3)GalNAc(a1-3)[Fuc(a1-2)]Gal(b1-4)Glc
Procedure, shortened: as §1

[2] = target: Fuc(a1-2)Gal(b1-3)GalNAc(a1-3)[Fuc(a1-2)]Gal(b1-4)GlcNAc
Procedure, shortened: as §1

[3] = target: Fuc(a1-2)Gal(b1-3)GalNAc(b1-3)Gal
Procedure, shortened: as §1

[4] = target: Fuc(a1-2)Gal(b1-3)GalNAc(b1-3)Gal(a1-4)Gal(b1-4)Glc
Procedure, shortened: as §1

[5] = target: Fuc(a1-2)Gal(b1-3)GalNAc(b1-4)[Neu5Ac(a2-3)]Gal(b1-4)Glc
Procedure, shortened: as §1

Fuc(a1-2)Gal(b1-3)GlcNAc = target: Fuc(a1-2)Gal(b1-3)GlcNAc
Procedure, shortened: as §1

[6] = target: Fuc(a1-2)Gal(b1-3)GlcNAc(b1-2)Man(a1-3)[Fuc(a1-2)Gal(b1-3)GlcNAc(b1-2)Man(a1-6)]Man(b1-4)GlcNAc(b1-4)GlcNAc
Procedure, shortened: as §1

[7] = target: Fuc(a1-2)Gal(b1-3)GlcNAc(b1-2)Man(a1-3)[Fuc(a1-2)Gal(b1-3)GlcNAc(b1-2)Man(a1-6)]Man(b1-4)GlcNAc(b1-4)[Fuc(a1-6)]GlcNAc
Procedure, shortened: as §1

[8] = target: Fuc(a1-2)Gal(b1-3)GlcNAc(b1-3)Gal(b1-4)Glc
Procedure, shortened: as §1

[9] = target: Fuc(a1-2)Gal(b1-3)GlcNAc(b1-3)GalNAc
Procedure, shortened: as §1

[10] = target: Fuc(a1-2)Gal(b1-3)GlcNAc(b1-3)[Fuc(a1-2)Gal(b1-3)GlcNAc(b1-6)]GalNAc
Procedure, shortened: as §1

[11] = target: Fuc(a1-2)Gal(b1-3)GlcNAc(b1-3)[Gal(b1-4)GlcNAc(b1-6)]Gal(b1-4)Glc
Procedure, shortened: as §1

[12] = target: Fuc(a1-2)Gal(b1-3)GlcNAc(b1-3)[Neu5Ac(a2-6)Gal(b1-4)GlcNAc(b1-6)]Gal(b1-4)Glc
Procedure, shortened: as §1

[13] = target: Fuc(a1-2)Gal(b1-3)GlcNAc6S
Procedure, shortened: as §1

[14] = target: Fuc(a1-2)Gal(b1-3)[Fuc(a1-4)]GlcNAc
Procedure, shortened: as §1

[15] = target: Fuc(a1-2)Gal(b1-3)[Fuc(a1-4)]GlcNAc(b1-2)Man(a1-3)[Fuc(a1-2)Gal(b1-3)[Fuc(a1-4)]GlcNAc(b1-2)Man(a1-3)]Man(b1-4)GlcNAc(b1-4)GlcNAc
Procedure, shortened: as §1

[16] = target: Fuc(a1-2)Gal(b1-3)[Fuc(a1-4)]GlcNAc(b1-2)Man(a1-3)[Fuc(a1-2)Gal(b1-3)[Fuc(a1-4)]GlcNAc(b1-2)Man(a1-6)]Man(b1-4)GlcNAc(b1-4)[Fuc(a1-6)]GlcNAc(b1-4)[Fuc(a1-6)]GlcNAc
Procedure, shortened: as §1

[17] = target: Fuc(a1-2)Gal(b1-3)[Fuc(a1-4)]GlcNAc(b1-3)[Fuc(a1-3)[Gal(b1-4)]GlcNAc(b1-6)]Gal(b1-4)Glc
Procedure, shortened: as §1

[18] = target: Fuc(a1-2)Gal(b1-3)[Fuc(a1-4)]GlcNAc(b1-3)[Gal(b1-4)GlcNAc(b1-6)]Gal(b1-4)Glc
Procedure, shortened: as §1

[19] = target: Fuc(a1-2)Gal(b1-4)Fuc(a1-3)]GlcNAc(b1-2)Man(a1-3)[Fuc(a1-2)Gal(b1-4)[Fuc(a1-3)]GlcNAc(b1-2)Man(a1-6)]Man(b1-4)GlcNAc(b1-4)GlcNAc
Procedure, shortened: as §1

Fuc(a1-2)Gal(b1-4)Glc = target: Fuc(a1-2)Gal(b1-4)Glc
Procedure, shortened: as §1

Fuc(a1-2)Gal(b1-4)Glc6S = target: Fuc(a1-2)Gal(b1-4)Glc6S
Procedure, shortened: as §1

Fuc(a1-2)Gal(b1-4)GlcNAc = target: Fuc(a1-2)Gal(b1-4)GlcNAc
Procedure, shortened: as §1

[20] = target: Fuc(a1-2)Gal(b1-4)GlcNAc(b1-2)Man
Procedure, shortened: as §1

[21] = target: Fuc(a1-2)Gal(b1-4)GlcNAc(b1-2)Man(a1-3)[Fuc(a1-2)Gal(b1-4)GlcNAc(b1-2)Man(a1-6)]Man(b1-4)GlcNAc(b1-4)GlcNAc
Procedure, shortened: as §1

[22] = target: Fuc(a1-2)Gal(b1-4)GlcNAc(b1-2)Man(a1-3)[Fuc(a1-2)Gal(b1-4)GlcNAc(b1-2)Man(a1-6)]Man(b1-4)GlcNAc(b1-4)[Fuc(a1-6)]GlcNAc
Procedure, shortened: as §1

[23] = target: Fuc(a1-2)Gal(b1-4)GlcNAc(b1-2)[Fuc(a1-2)Gal(b1-4)GlcNAc(b1-4)]Man(a1-3)[Fuc(a1-2)Gal(b1-4)GlcNAc(b1-2)Man(a1-6)]Man(b1-4)GlcNAc(b1-4)GlcNAc
Procedure, shortened: as §1

[24] = target: Fuc(a1-2)Gal(b1-4)GlcNAc(b1-3)Gal(b1-4)GlcNAc
Procedure, shortened: as §1

[25] = target: Fuc(a1-2)Gal(b1-4)GlcNAc(b1-3)Gal(b1-4)GlcNAc(b1-2)Man(a1-3)[Fuc(a1-2)Gal(b1-4)GlcNAc(b1-3)Gal(b1-4)GlcNAc(b1-2)Man(a1-6)]Man(b1-4)GlcNAc(b1-4)GlcNAc
Procedure, shortened: as §1

[26] = target: Fuc(a1-2)Gal(b1-4)GlcNAc(b1-3)Gal(b1-4)GlcNAc(b1-3)Gal(b1-4)GlcNAc
Procedure, shortened: as §1

[27] = target: Fuc(a1-2)Gal(b1-4)GlcNAc(b1-3)GalNAc
Procedure, shortened: as §1

[28] = target: Fuc(a1-2)Gal(b1-4)GlcNAc(b1-3)[Fuc(a1-2)Gal(b1-4)GlcNAc(b1-6)]GalNAc
Procedure, shortened: as §1

[29] = target: Fuc(a1-2)Gal(b1-4)GlcNAc(b1-3)[Fuc(a1-3)[Gal(b1-4)]GlcNAc(b1-6)]Gal(b1-4)Glc
Procedure, shortened: as §1

[30] = target: Fuc(a1-2)Gal(b1-4)GlcNAc(b1-6)GalNAc
Procedure, shortened: as §1

[31] = target: Fuc(a1-2)Gal(b1-4)GlcNAc6S
Procedure, shortened: as §1

B1: Langerin K299A/K313A (Homo sapiens), Q9UJ71 (protein)
chain: STLNAQIPELKSDLEKASALNTKIRALQGSLENMSKLLKRQNDILQVVSQGWKYFKGNFYYFSLIPKTWYSAEQFCVSRNSHLTSVTSESEQEFLYKTAGGLIYWIGLTKAGMEGDWSWVDDTPFNKVQSARFWIPGEPNNAGNNEHCGNIAAPSLQAWNDAPCDATFLFICKRPYVPSEP
- glycan array binding signal (z-score) (Fuc(a1-2)Gal): -0.225
- glycan array binding signal (z-score) (Fuc(a1-2)Gal(b1-3)GalNAc): -0.554
- glycan array binding signal (z-score) [1]: -0.167
- glycan array binding signal (z-score) [2]: -0.954
- glycan array binding signal (z-score) [3]: 0.181
- glycan array binding signal (z-score) [4]: -0.563
- glycan array binding signal (z-score) [5]: -0.461
- glycan array binding signal (z-score) (Fuc(a1-2)Gal(b1-3)GlcNAc): -0.849
- glycan array binding signal (z-score) [6]: 0.278
- glycan array binding signal (z-score) [7]: 2.68
- glycan array binding signal (z-score) [8]: -0.768
- glycan array binding signal (z-score) [9]: 0.103
- glycan array binding signal (z-score) [10]: 0.732
- glycan array binding signal (z-score) [11]: -0.197
- glycan array binding signal (z-score) [12]: 0.388
- glycan array binding signal (z-score) [13]: -0.062
- glycan array binding signal (z-score) [14]: -0.416
- glycan array binding signal (z-score) [15]: 1.67
- glycan array binding signal (z-score) [16]: 0.903
- glycan array binding signal (z-score) [17]: -0.457
- glycan array binding signal (z-score) [18]: -1.07
- glycan array binding signal (z-score) [19]: -0.126
- glycan array binding signal (z-score) (Fuc(a1-2)Gal(b1-4)Glc): 0.61
- glycan array binding signal (z-score) (Fuc(a1-2)Gal(b1-4)Glc6S): -0.78
- glycan array binding signal (z-score) (Fuc(a1-2)Gal(b1-4)GlcNAc): -0.197
- glycan array binding signal (z-score) [20]: -0.127
- glycan array binding signal (z-score) [21]: 0.446
- glycan array binding signal (z-score) [22]: -0.686
- glycan array binding signal (z-score) [23]: 2.71
- glycan array binding signal (z-score) [24]: 0.077
- glycan array binding signal (z-score) [25]: 0.798
- glycan array binding signal (z-score) [26]: 0.332
- glycan array binding signal (z-score) [27]: 0.147
- glycan array binding signal (z-score) [28]: 1.58
- glycan array binding signal (z-score) [29]: -1.06
- glycan array binding signal (z-score) [30]: 1.66
- glycan array binding signal (z-score) [31]: -0.822
